Some of the results follow.
compound: COc1ccc(Cn2ccc3cc(C)c(C(=O)NO)cc32)cc1; test: dose-dependent thermal stabilisation call (2D-TPP, DLPTP, 10% FDR) (binary (1 = stabilised)); higher = stabilised by the compound; conditions: system: HL-60 intact cells; concentration range 0.04-10 µM
Protocol: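 2D thermal proteome profiling in intact HL-60 cells treated with BRD-3811 (0, 0.04, 0.29, 2, 10 uM) for 90 min at 37 C, then heated 3 min at one of 12 temperatures (42-63.9 C). Soluble protein was quantified by TMT10 MS. The value is the DLPTP call of the paper: dose-dependent thermal stabilisation over all temperatures at 10% FDR (F-test of a dose-response against a flat model); one experiment, one call per tested protein.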

The chains behind the UniProt entries cited, without tags or fusion partners. Where a name states a change or a piece, a line headed by the entry shows the natural chain unless it says otherwise.
UniProt Q9Y2B2: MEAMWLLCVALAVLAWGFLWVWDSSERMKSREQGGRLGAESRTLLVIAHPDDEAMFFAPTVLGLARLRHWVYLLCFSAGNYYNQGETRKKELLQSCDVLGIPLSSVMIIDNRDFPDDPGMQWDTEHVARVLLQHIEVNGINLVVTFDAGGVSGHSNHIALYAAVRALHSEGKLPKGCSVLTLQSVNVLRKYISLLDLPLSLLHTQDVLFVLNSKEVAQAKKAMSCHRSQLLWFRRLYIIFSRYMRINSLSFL
UniProt Q8TEW0: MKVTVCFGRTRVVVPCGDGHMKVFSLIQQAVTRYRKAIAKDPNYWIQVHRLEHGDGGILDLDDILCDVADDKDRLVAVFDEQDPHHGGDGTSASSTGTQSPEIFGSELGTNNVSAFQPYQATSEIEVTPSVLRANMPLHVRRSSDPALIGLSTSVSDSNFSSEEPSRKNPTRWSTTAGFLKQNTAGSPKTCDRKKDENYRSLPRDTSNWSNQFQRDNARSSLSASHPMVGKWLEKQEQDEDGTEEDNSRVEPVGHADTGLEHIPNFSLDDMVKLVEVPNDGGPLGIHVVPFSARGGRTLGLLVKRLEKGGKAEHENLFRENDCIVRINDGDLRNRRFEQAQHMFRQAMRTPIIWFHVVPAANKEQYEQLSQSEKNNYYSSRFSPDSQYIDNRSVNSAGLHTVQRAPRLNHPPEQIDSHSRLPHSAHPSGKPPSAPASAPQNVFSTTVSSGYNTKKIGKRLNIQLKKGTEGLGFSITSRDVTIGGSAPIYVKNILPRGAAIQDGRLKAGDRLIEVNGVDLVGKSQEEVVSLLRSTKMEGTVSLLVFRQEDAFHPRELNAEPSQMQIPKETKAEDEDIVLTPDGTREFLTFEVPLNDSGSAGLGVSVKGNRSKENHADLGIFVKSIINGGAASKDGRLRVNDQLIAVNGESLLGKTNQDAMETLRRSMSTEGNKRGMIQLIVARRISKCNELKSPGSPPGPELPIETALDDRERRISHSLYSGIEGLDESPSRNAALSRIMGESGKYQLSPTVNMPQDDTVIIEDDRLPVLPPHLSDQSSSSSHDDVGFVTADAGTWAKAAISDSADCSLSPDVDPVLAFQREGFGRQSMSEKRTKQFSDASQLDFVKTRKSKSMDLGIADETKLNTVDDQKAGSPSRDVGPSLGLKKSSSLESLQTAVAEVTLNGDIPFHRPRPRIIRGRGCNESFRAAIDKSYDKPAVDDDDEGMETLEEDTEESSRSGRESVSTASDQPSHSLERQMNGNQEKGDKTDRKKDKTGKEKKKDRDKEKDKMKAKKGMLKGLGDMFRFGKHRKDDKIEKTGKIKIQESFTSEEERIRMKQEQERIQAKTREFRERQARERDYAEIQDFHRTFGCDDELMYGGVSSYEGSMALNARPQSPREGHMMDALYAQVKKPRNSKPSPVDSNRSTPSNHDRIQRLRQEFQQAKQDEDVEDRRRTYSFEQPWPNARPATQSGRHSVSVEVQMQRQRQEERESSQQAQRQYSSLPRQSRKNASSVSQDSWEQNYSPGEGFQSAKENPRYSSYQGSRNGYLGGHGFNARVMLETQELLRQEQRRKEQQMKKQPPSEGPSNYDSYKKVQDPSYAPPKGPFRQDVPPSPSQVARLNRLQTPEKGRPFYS
UniProt Q8NEN9: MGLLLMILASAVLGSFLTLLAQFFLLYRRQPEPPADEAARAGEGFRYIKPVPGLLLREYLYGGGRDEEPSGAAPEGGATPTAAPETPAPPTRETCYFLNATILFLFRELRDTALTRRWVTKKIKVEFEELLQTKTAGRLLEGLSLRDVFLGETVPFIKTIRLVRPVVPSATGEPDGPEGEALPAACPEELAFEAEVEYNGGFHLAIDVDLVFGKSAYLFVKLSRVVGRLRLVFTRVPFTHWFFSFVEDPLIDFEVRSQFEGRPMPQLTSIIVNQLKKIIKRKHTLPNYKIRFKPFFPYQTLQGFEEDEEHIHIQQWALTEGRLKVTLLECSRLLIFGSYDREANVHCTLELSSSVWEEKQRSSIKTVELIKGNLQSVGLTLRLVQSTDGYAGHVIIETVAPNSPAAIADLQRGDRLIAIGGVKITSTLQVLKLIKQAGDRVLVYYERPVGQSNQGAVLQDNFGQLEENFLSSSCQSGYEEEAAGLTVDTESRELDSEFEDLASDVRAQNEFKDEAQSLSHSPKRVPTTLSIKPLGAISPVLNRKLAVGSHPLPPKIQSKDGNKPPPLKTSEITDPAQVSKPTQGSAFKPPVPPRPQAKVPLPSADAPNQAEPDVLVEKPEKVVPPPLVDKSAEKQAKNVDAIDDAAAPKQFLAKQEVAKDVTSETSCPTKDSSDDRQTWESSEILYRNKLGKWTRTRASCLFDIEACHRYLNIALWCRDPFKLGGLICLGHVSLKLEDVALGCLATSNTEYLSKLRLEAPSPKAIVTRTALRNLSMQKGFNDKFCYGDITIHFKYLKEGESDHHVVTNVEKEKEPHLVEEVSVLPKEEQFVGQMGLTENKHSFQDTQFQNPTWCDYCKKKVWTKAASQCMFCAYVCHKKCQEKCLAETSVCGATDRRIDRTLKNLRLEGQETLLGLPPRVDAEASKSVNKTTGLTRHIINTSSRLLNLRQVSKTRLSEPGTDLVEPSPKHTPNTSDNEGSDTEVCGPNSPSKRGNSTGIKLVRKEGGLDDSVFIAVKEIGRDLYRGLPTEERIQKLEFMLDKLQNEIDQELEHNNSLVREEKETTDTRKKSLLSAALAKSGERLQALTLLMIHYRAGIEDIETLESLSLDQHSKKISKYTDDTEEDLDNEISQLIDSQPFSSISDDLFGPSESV
UniProt P52209: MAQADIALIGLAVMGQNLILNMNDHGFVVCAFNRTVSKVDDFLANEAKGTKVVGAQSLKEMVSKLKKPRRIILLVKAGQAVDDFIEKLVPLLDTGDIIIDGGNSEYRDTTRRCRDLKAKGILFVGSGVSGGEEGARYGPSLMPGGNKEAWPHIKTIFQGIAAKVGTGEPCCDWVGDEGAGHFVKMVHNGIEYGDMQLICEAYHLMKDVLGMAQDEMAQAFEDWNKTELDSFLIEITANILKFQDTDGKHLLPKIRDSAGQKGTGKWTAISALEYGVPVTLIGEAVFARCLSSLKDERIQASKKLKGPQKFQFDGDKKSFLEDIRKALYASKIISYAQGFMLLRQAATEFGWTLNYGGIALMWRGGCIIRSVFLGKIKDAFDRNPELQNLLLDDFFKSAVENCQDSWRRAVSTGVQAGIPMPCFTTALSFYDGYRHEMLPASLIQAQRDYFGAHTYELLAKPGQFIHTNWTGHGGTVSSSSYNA
UniProt Q6GQQ9: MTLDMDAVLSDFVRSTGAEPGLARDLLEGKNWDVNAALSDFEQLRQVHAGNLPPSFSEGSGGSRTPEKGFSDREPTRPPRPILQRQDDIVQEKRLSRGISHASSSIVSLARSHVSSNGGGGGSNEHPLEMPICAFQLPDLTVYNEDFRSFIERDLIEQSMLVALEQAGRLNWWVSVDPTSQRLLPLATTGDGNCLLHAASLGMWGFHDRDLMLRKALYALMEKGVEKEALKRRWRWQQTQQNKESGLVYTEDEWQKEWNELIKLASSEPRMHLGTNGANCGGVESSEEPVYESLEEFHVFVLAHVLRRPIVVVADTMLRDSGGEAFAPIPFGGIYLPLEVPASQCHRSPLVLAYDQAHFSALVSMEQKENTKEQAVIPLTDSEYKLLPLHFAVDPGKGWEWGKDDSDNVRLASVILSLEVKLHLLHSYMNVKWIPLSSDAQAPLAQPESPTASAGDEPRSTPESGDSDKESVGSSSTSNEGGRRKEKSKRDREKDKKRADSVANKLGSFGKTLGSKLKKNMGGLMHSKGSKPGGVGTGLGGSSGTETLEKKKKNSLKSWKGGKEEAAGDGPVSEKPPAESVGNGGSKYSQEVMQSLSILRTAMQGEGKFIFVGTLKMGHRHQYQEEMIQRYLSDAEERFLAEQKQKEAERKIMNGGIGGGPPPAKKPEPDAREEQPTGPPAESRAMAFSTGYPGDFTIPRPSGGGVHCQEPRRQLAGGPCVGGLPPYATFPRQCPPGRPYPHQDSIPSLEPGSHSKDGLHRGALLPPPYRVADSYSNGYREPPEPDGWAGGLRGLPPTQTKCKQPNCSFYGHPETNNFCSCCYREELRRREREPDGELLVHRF
UniProt O60925, whole entry: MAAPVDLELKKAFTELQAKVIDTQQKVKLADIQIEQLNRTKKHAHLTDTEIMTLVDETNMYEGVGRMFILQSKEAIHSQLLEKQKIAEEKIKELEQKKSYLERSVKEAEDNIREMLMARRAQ
UniProt Q9H490: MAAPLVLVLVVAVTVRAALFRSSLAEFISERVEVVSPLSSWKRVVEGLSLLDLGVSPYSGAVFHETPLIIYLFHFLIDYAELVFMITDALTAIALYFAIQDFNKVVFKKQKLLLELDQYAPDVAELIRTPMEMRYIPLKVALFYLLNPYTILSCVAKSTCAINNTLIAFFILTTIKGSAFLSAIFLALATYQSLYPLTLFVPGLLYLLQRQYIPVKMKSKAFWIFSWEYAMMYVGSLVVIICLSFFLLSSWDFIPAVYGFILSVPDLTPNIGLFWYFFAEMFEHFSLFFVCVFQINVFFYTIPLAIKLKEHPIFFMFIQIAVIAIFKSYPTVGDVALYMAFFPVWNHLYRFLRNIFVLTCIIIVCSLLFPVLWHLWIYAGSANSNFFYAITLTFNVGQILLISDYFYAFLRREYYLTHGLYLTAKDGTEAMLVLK
UniProt Q9H814, whole entry: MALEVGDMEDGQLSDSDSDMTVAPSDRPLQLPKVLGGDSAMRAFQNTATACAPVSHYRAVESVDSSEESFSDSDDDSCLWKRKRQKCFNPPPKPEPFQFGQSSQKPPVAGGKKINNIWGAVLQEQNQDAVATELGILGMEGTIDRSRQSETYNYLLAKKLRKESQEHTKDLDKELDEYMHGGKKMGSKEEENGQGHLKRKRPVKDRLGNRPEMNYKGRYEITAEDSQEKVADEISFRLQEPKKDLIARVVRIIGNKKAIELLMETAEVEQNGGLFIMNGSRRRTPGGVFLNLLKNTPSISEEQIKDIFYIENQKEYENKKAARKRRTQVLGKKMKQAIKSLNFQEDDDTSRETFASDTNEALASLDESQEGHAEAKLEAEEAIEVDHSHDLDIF
UniProt Q9H0N5: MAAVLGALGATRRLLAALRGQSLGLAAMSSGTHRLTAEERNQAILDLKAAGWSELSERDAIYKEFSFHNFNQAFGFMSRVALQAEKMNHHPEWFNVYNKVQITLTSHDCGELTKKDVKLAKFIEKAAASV
UniProt Q9BXW6, whole entry: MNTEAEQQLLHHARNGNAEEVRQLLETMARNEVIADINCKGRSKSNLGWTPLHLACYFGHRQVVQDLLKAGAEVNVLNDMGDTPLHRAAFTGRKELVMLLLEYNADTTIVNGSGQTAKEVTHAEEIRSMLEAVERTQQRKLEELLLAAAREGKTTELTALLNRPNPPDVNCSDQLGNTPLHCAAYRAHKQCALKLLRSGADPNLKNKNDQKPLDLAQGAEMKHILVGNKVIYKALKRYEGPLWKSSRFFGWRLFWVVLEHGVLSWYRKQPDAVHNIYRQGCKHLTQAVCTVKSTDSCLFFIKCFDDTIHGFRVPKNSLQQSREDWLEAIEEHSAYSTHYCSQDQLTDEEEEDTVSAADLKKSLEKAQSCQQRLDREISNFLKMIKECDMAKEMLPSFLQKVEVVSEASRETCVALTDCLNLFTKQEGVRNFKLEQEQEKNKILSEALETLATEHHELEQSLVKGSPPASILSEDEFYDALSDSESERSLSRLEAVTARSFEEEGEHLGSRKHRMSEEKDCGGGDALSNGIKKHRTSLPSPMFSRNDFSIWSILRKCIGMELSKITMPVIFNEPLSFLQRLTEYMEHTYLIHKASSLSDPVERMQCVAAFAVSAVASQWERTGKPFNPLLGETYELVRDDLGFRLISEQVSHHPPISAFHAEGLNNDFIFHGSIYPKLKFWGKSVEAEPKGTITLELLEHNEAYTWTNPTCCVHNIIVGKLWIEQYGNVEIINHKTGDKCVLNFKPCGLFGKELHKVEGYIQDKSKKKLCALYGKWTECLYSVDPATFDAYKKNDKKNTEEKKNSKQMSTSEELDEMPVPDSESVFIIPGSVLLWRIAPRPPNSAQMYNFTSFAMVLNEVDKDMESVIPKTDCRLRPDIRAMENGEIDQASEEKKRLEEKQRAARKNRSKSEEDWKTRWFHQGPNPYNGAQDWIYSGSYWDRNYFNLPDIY
UniProt Q9NWU1, whole entry: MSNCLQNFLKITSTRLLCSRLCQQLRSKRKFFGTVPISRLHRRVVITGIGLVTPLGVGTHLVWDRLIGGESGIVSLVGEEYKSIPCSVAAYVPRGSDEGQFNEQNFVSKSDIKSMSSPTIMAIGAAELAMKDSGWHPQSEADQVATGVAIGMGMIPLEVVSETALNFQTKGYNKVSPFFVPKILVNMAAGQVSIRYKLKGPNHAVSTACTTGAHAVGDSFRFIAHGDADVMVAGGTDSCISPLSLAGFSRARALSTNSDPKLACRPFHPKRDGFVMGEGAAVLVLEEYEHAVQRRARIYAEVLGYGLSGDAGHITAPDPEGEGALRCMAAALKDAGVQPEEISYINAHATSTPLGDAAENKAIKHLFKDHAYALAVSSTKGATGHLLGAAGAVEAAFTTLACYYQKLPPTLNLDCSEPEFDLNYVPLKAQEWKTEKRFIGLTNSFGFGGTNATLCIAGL

| Target | dose-dependent thermal stabilisation call |
| --- | --- |
| PIGL (UniProt Q9Y2B2) | inactive: 0 |
| PDE4DIP (UniProt Q5VU43) | inactive: 0 |
| PIK3CA (UniProt P42336) | inactive: 0 |
| PARD3 (UniProt Q8TEW0) | inactive: 0 |
| PDZD8 (UniProt Q8NEN9) | inactive: 0 |
| PEX3 (UniProt P56589) | inactive: 0 |
| PEX16 (UniProt Q9Y5Y5) | inactive: 0 |
| PDXK (UniProt O00764) | inactive: 0 |
| PGD (UniProt P52209) | inactive: 0 |
| OTUD7B (UniProt Q6GQQ9) | inactive: 0 |
| PFDN1 (UniProt O60925) | inactive: 0 |
| PIGU (UniProt Q9H490) | inactive: 0 |
| PHAX (UniProt Q9H814) | inactive: 0 |
| PIK3CD (UniProt O00329) | inactive: 0 |
| PARD6B (UniProt Q9BYG5) | inactive: 0 |
| PI4K2B (UniProt Q8TCG2) | inactive: 0 |
| PDHB (UniProt P11177) | inactive: 0 |
| PDS5B (UniProt Q9NTI5) | inactive: 0 |
| PACSIN2 (UniProt Q9UNF0) | inactive: 0 |
| PLXNA1 (UniProt Q9UIW2) | inactive: 0 |
| PCBD2 (UniProt Q9H0N5) | inactive: 0 |
| OPA1 (UniProt O60313) | inactive: 0 |
| P2RY8 (UniProt Q86VZ1) | inactive: 0 |
| PHC2 (UniProt Q8IXK0) | inactive: 0 |
| OSBPL1A (UniProt Q9BXW6) | inactive: 0 |
| OXSM (UniProt Q9NWU1) | inactive: 0 |
| PHF2 (UniProt O75151) | inactive: 0 |

Quoted from the listing.
Value for PDE4DIP (UniProt Q5VU43) under dose-dependent thermal stabilisation call: inactive: 0
Value for PI4K2B (UniProt Q8TCG2) under dose-dependent thermal stabilisation call: inactive: 0
